Measurements from PubChem BioAssay AID2685 (National Center for Advancing Translational Sciences (NCATS), 2010).
The list shows a part of the results. The main result of the screen is listed elsewhere. These columns were measured beside it and carry no call. Compounds called inactive in the main read-out are mostly missing here. Words in brackets tell the shape of the fitted curve; partial curves, single points and poor fits give uncertain potencies.

Assay: qHTS Assay for Lipid Storage Modulators in Drosophila S3 Cells;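 on cell number change: cells counted by Cell Tracker Red CMTPX staining in the red channel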
Details: BODIPY lipid droplet fluorescence, 18-24 h; for cell number change: measured here: cell count max response, cells fed with added oleic acid
In short: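 Drosophila S3 cells loaded with oleic acid (400 uM, as added) and compounds at several concentrations; lipid droplets imaged by 488-nm laser-scanning cytometry, 500–530 nm intensity and object ratio to cell channel. Percent activity normalized to 20 uM Triacsin C.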

[1] = measured here: lipid fluorescence (Fed channel) AC50, cells fed with added oleic acid
[2] = measured here: cell number channel AC50, cells fed with added oleic acid

Row | Structure (SMILES) | cell number change [%] | AC50 [1] | AC50 [2]
1 | O=C(CCNS(=O)(=O)c1ccc(Cl)cc1)OCC(=O)c1ccc[nH]1 | -20.4 | 0.146 µM [falling, full curve] | 
2 | CCCN(CC(=O)Nc1ccccc1C)C(=O)CCl | 55.8 | 16.4 µM [rising, single point] | 23.1 µM [rising, single point]
3 | Cc1ccccc1-c1nnn(CC(=O)Nc2ccc3c(c2)OCO3)n1 | 0.579 |  | 
4 | O=C(COC(=O)c1cc(S(=O)(=O)N2CCCCC2)ccc1N1CCOCC1)NCCc1ccc(F)cc1 | 65.1 | 2.06 µM [rising, full curve] | 2.06 µM [rising, partial curve]
5 | COC(=O)c1ccccc1NC(=O)CN1CCC(NC(=O)c2ccccc2C)CC1 | -12.9 | 1.84 µM [rising, full curve, poor fit] | 
6 | CCCCOC1(c2ccccc2)NC(=S)NN=C1c1ccccc1 (stereo not given) | 62.8 |  | 20.6 µM [rising, single point]
7 | COc1cc(NC(=O)COC(=O)CNC(=O)C2CCCCC2)cc(OC)c1 | -2.47 | 10.3 µM [rising, partial curve] | 
8 | CCOc1ccc(S(=O)(=O)N2CCCCC2)cc1NC(=O)CN1CCCC1c1cccs1 (stereo not given) | -1.85 | 0.58 µM [falling, single point] | 
9 | COc1ccccc1CNS(=O)(=O)c1c(C(=O)N2CCCCCC2)c(C)n(C)c1C | -28.8 | 7.31 µM [falling, partial curve] | 
10 | COc1ccccc1-c1nnc(SCC(=O)Nc2ccc(N3CCOCC3)cc2)n1C | 38 |  | 29.1 µM [rising, single point]
11 | O=C(NCCc1ccccc1F)[C@@H]1CSC2c3ccccc3C(=O)N21 (stereo not given in full) | 15.8 | 0.146 µM [falling, full curve, poor fit] | 
12 | COCC(=O)Oc1c(S(=O)(=O)c2ccc(C)cc2)c(C)nn1C(C)(C)C | -32.4 |  | 0.00411 µM [rising, full curve, poor fit]
13 | Cc1ccc(OC(=O)CCC(=O)N2CCc3ccccc32)cc1 | 2.23 | 0.146 µM [falling, full curve, poor fit] | 
14 | Cc1ccc(N2CCN(C(=S)c3ccc(-c4ccccc4[N+](=O)[O-])o3)CC2)cc1 | 14.9 | 8.2 µM [rising, single point] | 2.31 µM [rising, single point]
15 | CCC(=O)N1CCc2cc(Br)cc(S(=O)(=O)NCC3CCCN3CC)c21 (stereo not given) | -4.5 |  | 0.651 µM [falling, full curve, poor fit]
16 | CCOC(=O)C1=C(C)C/C(=N\NC(=O)c2ccccc2O)CC1 | -14.9 | 6.51 µM [falling, single point] | 
17 | CC(C)NC(=O)CN1CCN(C(=O)CCl)CC1 |  | 29.1 µM [falling, single point] | 0.731 µM [rising, full curve]
18 | CC(=O)Nc1ccc(NC(=O)C2CCN(S(=O)(=O)c3ccc4c(c3)OCCO4)CC2)cc1 | 8.65 | 4.11 µM [rising, full curve] | 
19 | Cc1nnc(SCC(=O)Nc2ccccc2)n1CCc1ccccc1 | 22.8 | 0.366 µM [rising, full curve] | 

Reprinted at random: 2 compounds from above
Row | Structure (SMILES) | cell number change [%] | AC50 [1] | AC50 [2]
19 | Cc1nnc(SCC(=O)Nc2ccccc2)n1CCc1ccccc1 | 22.8 | 0.366 µM [rising, full curve] | 
17 | CC(C)NC(=O)CN1CCN(C(=O)CCl)CC1 |  | 29.1 µM [falling, single point] | 0.731 µM [rising, full curve]

Remaining list, next part

Row | Structure (SMILES) | cell number change [%] | AC50 [1] | AC50 [2]
20 | COc1ccc(CCNC(=O)Nc2ccc(F)cc2F)cc1OC | -23.5 | 7.31 µM [falling, partial curve] | 
21 | O=C(Nc1nnc(S(=O)(=O)N2CCCCCC2)s1)c1ccccc1Br |  | 0.366 µM [rising, partial curve, poor fit] | 
22 | O=C(CN1C(=O)NC2(CCCC2)C1=O)Nc1ccc(F)cc1 | 20.1 | 0.206 µM [rising, full curve, poor fit] | 
23 | CCOC(=O)N1CCC(NC(=O)C2CCN(C(=O)c3cc4sccc4n3CC)CC2)CC1 | -28.6 | 4.11 µM [falling, single point] | 
24 | NC(=O)CSc1nnc(Cc2ccc3c(c2)OCO3)n1C1CCCCC1 | -1.97 | 0.92 µM [rising, full curve] | 
25 | COC(=O)c1ccccc1Sc1snnc1C | -7.38 |  | 
26 | CCOc1ccc(NC(=O)/C(C#N)=C/c2ccc(N3CCCC3)c(C)c2)cc1 | 18.8 |  | 
27 | CC1CN(CC(O)COC2CCC(C(C)(C)C)CC2)CC(C)O1 (stereo not given) | -11 | 2.91 µM [falling, partial curve] | 
28 | CCOc1ccccc1-n1nnnc1SCC(=O)NC(=O)Nc1ccc2c(c1)OCCO2 | 3.65 | 1.84 µM [falling, partial curve] | 
29 | Cc1cc(=O)oc2c1c(C)nn2-c1ccc(Cl)cc1 | -48.3 | 9.2 µM [falling, partial curve, poor fit] | 1.3 µM [falling, full curve, poor fit]
30 | Cc1ccc(N=Nc2c(O)ccc3n[nH]nc23)cc1 | -70.5 | 16.4 µM [falling, single point] | 20.6 µM [falling, single point]
31 | COc1ccc2[nH]c(=O)c(CN(Cc3cccnc3)C(=S)NCC3CCCO3)cc2c1 (stereo not given) | 11.1 | 1.03 µM [rising, partial curve, poor fit] | 
32 | CCC(=O)N1N=C(c2c(-c3ccccc3)c3cc(Cl)ccc3[nH]c2=O)CC1c1ccco1 (stereo not given) | -37.2 |  | 11.6 µM [falling, single point]
33 | CC1(C)C(=S)N(Cc2ccccc2)c2ccccc21 | -6.63 | 6.51 µM [rising, single point] | 
34 | CC(C)CC(=O)/C=C/n1c(=S)oc2ccccc21 |  | 20.6 µM [falling, single point] | 
35 | COc1cc(NC(=O)c2cc(-c3ccccc3)on2)cc(OC)c1OC | 8.09 |  | 
36 | CCOc1cc(S(=O)(=O)NCc2ccc3c(c2)OCO3)ccc1F | 7.03 | 16.4 µM [rising, partial curve] | 
37 | CCC1CCCCN1C(=O)COc1cc(=O)n(C)c2ccccc12 (stereo not given) | -7.55 | 0.326 µM [falling, full curve, poor fit] | 
38 | CC(=O)Oc1ccc(C(=O)Nc2ccccc2C(=O)Nc2ccc(C(=O)O)cc2)cc1 | -19.4 | 3.66 µM [rising, single point] | 
